Experiment [1] addresses hCYGB-tag (wild type human cytoglobin, DYKDDDDK tagged) (human) (UniProt Q8WWM9). As to the kind of experiment: affinity purification with mass spectrometry.
Experiment [2] has the same target. As to the kind of experiment: condition: only cells without hydrogen peroxide treatment.

By UniProt entry, the sequences of proteins in these tests, tags left out.
UniProt Q8WWM9: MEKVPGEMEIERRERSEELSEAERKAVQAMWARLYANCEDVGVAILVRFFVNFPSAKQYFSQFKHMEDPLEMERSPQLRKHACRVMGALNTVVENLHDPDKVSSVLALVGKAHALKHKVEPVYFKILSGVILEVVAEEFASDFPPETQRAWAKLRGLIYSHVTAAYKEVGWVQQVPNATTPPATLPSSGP

Consider 2 molecules from article doi:10.1101/2023.05.10.540045.

No constants are given. Whether binding was seen depends on the method and setting. Binding seen in cells or lysates may run through a third protein. A yes stands for co-enrichment or nearness to the bait. Other partners may have been found. For part of these data: No binding means not detected with the bait.

B1: High Mobility Group Box 2 (HMGB2), endogenous in HEK293 (protein, UniProt P26583 1-209)
chain: MGKGDPNKPRGKMSSYAFFVQTCREEHKKKHPDSSVNFAEFSKKCSERWKTMSAKEKSKFEDMAKSDKARYDREMKNYVPPKGDKKGKKKDPNAPKRPPSAFFLFCSEHRPKIKSEHPGLSIGDTAKKLGEMWSEQSAKDKQPYEQKAAKLKEKYEKDIAAYRAKGKSEAGKKGPGRPTGSKKKNEPEDEEEEEEEEDEDEEEEDEDEE
For B1, the results for the binding entry in experiment [1] and in experiment [2] were “binds” and “no binding”, respectively.

B2: serine/threonine-protein phosphatase 6 regulatory subunit 1 (PP6R1) (protein, UniProt Q9UPN7 1-881)
chain: MFWKFDLHTSSHLDTLLEREDLSLPELLDEEDVLQECKVVNRKLLDFLLQPPHLQAMVAWVTQEPPDSGEERLRYKYPSVACEILTSDVPQINDALGADESLLNRLYGFLQSTGSLNPLLASFFSKVMGILINRKTDQLVSFLRKKDDFVDLLLQHIGTSAIMDLLLRLLTCVERPQLRQDVVNWLNEEKIVQRLIEQIHPSKDENQHSNASQSLCDIIRLSREQMIQVQDSPEPDQLLATLEKQETIEQLLSNMFEGEQSQSVIVSGIQVLLTLLEPRRPRSESVTVNSFFSSVDGQLELLAQGALESTVSSVGALHALRPRLSCFHQLLLEPPKLEPLQMTWGMLAPPLGNTRLHVVKLLASALSANDAALTHELLALDVPNTMLDLFFHYVFNNFLHAQVEGCVSTMLSLGPPPDSSPETPIQNPVVKHLLQQCRLVERILTSWEENDRVQCAGGPRKGYMGHLTRVAGALVQNTEKGPNAEQLRQLLKELPSEQQEQWEAFVSGPLAETNKKNMVDLVNTHHLHSSSDDEDDRLKEFNFPEEAVLQQAFMDFQMQRMTSAFIDHFGFNDEEFGEQEESVNAPFDKTANITFSLNADDENPNANLLEICYKDRIQQFDDDEEEEDEEEAQGSGESDGEDGAWQGSQLARGARLGQPPGVRSGGSTDSEDEEEEDEEEEEDEEGIGCAARGGATPLSYPSPGPQPPGPSWTATFDPVPTDAPTSPRVSGEEELHTGPPAPQGPLSVPQGLPTQSLASPPARDALQLRSQDPTPPSAPQEATEGSKVTEPSAPCQALVSIGDLQATFHGIRSAPSSSDSATRDPSTSVPASGAHQPPQTTEGEKSPEPLGLPQSQSAQALTPPPIPNGSAPEGPASPGSQ
Regarding B2, the binding entry in experiment [1] is “binds”.
